Assay results from PubChem BioAssay AID540256 (National Center for Advancing Translational Sciences (NCATS), 2011).
About 3,700 (1.2%) of roughly 300,000 compounds were called active. Inconclusive means that the source gave no clear call. Such entries were picked first, then a sample of the others. Calls come from the whole dose curve; tested in HEK293 cells. A potency beside an inconclusive call is a rough fit, not a confirmed value.

assay: qHTS for Inhibitors of binding or entry into cells for Lassa Virus; details: Lassa virus pseudotype entry inhibition, cell reporter; series mostly up to 37.9 µM; note: nearly all actives have a fitted effect of over 50% in size
Potency is the fitted concentration of half-maximal effect.

| Structure (SMILES) | Potency |
| --- | --- |
| CCn1cc2nc(SCc3ccc(F)cc3)n(CCc3ccccc3)c(=O)c2n1 | inconclusive: 35.5 µM [inhibitor, single point] |
| CN(C)c1ccc(C(=O)N2CCN(c3cc(C(F)(F)F)nc4ccccc34)CC2)cc1 | inconclusive: 14.1 µM [inhibitor, partial curve, poor fit] |
| COc1ccc(/C=N/NC(=O)CCn2c3ccccc3c3ccccc32)cc1O | inconclusive: 0.411 µM [inhibitor, full curve, poor fit] |
| COc1ccc(-c2nc(CSc3nnc(C)n4c3cc3oc(C)cc34)c(C)o2)cc1OC | inactive |
| CCc1ccc(NC(=O)C(=O)NCc2ccccn2)cc1 | inconclusive: 4.47 µM [activator, partial curve, poor fit] |
| C=CCSc1nc2sc3c(c2c(=O)[nH]1)CC(C)(C)OC3 | inactive |
| COc1ccc(CCN2C(=O)c3[nH]nc(-c4ccccc4O)c3C2c2ccccc2)cc1 (stereo not given) | inconclusive: 7.08 µM [inhibitor, full curve, poor fit] |
| Cc1ccc(NC(=O)N(Cc2cccnc2)Cc2ccco2)cc1C | inconclusive: 20.6 µM [inhibitor, partial curve, poor fit] |
| C=Cc1ccc(Cn2ccn(-c3ccc(F)c(F)c3)c(=O)c2=O)cc1 | inconclusive: 2.24 µM [inhibitor, partial curve, poor fit] |
| CCOC(=O)c1ccc(Nc2nnc(C)c3ccccc23)cc1 | inconclusive: 11.2 µM [inhibitor, partial curve, poor fit] |
| CCOC(=O)C1=C(c2ccccc2)NC(=S)NC1c1ccc(Cl)cc1 (stereo not given) | inconclusive: 8.91 µM [inhibitor, partial curve, poor fit] |
| N#C/C(=C\c1ccco1)c1nc2ccccc2s1 | inconclusive: 0.0891 µM [activator, full curve, poor fit] |
| CC(=O)N1CCc2cc(CNC(=O)Nc3ccc(Br)c(C)c3)ccc21 | inactive |
| CCCn1c(CC)nc([N+](=O)[O-])c1S(=O)(=O)c1ccccc1 | inconclusive: 29.1 µM [inhibitor, single point] |
| Fc1ccc2c(c1)-c1c(cnc3cc(-c4ccc(Cl)cc4)nn13)CO2 | inactive |
| CC1=C(C(=O)Nc2ccc(C)cc2C)C(c2cccc([N+](=O)[O-])c2)n2nc(C(=O)OC(C)C)nc2N1 (stereo not given) | inactive |
| COc1ccc(NC(=O)CSc2nnnn2-c2ccc(OC)cc2)cc1 | inactive |
| CN(Cc1cccnc1)C(=O)CC1C(=O)NCCN1Cc1ccc(-c2ccccc2)cc1 (stereo not given) | inconclusive: 0.562 µM [inhibitor, full curve, poor fit] |
| CC(=O)/C=C\c1cn(-c2ncc(C(F)(F)F)cc2Cl)c2ccccc12 | inconclusive: 20 µM [inhibitor, single point] |
| N/C(=N\OC(=O)C1CC1)c1ccc([N+](=O)[O-])s1 | inactive |
| O=C(CCCC(=O)N1CCN(c2ccccc2F)CC1)N1CCN(c2ccccc2F)CC1 | inconclusive: 2.82 µM [inhibitor, partial curve, poor fit] |
| Cn1c(NCc2ccco2)nc2c1c(=O)n(Cc1ccc(Cl)cc1Cl)c(=O)n2C | inactive |

| Structure (SMILES) | Potency |
| --- | --- |
| CCN(CC)CCCN=C(C)C1=C(O)c2ccccc2C1=O | inconclusive: 6.31 µM [activator, single point] |
| O=C(c1ccc(S(=O)(=O)c2cccc(Cl)c2)c([N+](=O)[O-])c1)N1CCN(c2ccccn2)CC1 | inconclusive: 11.2 µM [inhibitor, single point] |
| O=c1/c(=C/c2ccc(O)cc2)sc2n1CCCN=2 | inconclusive: 20 µM [activator, single point] |
| CCOc1ccc(-c2cc3nc(C4CCN(C(=O)OC(C)(C)C)CC4)c(C(=O)Nc4c(C)cccc4C)cn3n2)cc1 | inactive |
| CCOc1cc(-c2nccc3cc(OC)c(OC)cc23)cc(OCC)c1OCC | inconclusive: 11.2 µM [inhibitor, partial curve, poor fit] |
| COc1ccc(C(=O)/C=C/C(=O)N(Cc2ccccc2OC)C(C(=O)NC2CCCCC2)c2ccncc2)c(O)c1 (stereo not given) | inconclusive: 22.4 µM [inhibitor, single point] |
| O=C(COC(=O)Cc1ccc(F)cc1)Nc1ccc2[nH]c(=O)[nH]c2c1 | inactive |
| N#CC1=C(N)Oc2cc3ccccc3cc2C1c1cccnc1 (stereo not given) | inconclusive: 4.47 µM [inhibitor, full curve, poor fit] |
| O=C(Nc1ccccc1)c1cc([N+](=O)[O-])ccc1NC1CCCCC1 | inconclusive: 0.447 µM [inhibitor, full curve, poor fit] |
| Cc1ccc(-c2cc(-c3ccc(F)cc3)nc(N)c2C#N)o1 | inconclusive: 22.4 µM [inhibitor, partial curve, poor fit] |
| Cc1ccc(C2C(=O)N(C3CCCC3)CC(=O)N2C2CCCCC2)cc1 (stereo not given) | inconclusive: 35.5 µM [inhibitor, single point] |
| COc1ccc(N=Cc2cccc(C)c2O)cc1Cl | inconclusive: 3.55 µM [activator, single point] |
| COc1ccc(S(=O)(=O)N(CC(=O)Nc2ccccc2Br)Cc2ccccc2)cc1 | inconclusive: 35.5 µM [inhibitor, single point] |
| Cc1nnnn1/C(=C\c1ccccc1)C(=O)OCC(=O)Nc1ccc(Cl)cc1F | active: 20 µM |
| CCSc1nnc2c(n1)[nH]c1c(C)cccc12 | inactive |
| CCOC(=O)c1ccc[n+](CC(=O)Nc2cc(C(F)(F)F)ccc2Cl)c1 | inactive |
| COC(=O)C1=CN(CC2CCCO2)C=C(C(=O)OC)C1c1cc(OC)c(OC)c(OC)c1 (stereo not given) | inconclusive: 9.2 µM [inhibitor, partial curve] |
| CCOC(=O)c1c(C)[nH]c(C(=O)COC(=O)[C@H](C)N2C(=O)C3CCCCC3C2=O)c1C (stereo not given in full) | inconclusive: 35.5 µM [inhibitor, single point] |
| COc1ccc(-c2nc3scc(CCNS(=O)(=O)c4ccc(C)cc4)n3n2)cc1 | inactive |
| Cc1ccc(S(=O)(=O)CCSc2nc(C)cc(C(F)(F)F)c2C#N)cc1 | inconclusive: 14.1 µM [inhibitor, single point] |
| O=C(Nc1cc(C(=O)N2CCN(c3ccccc3O)CC2)ccc1Cl)c1cccs1 | inconclusive: 35.5 µM [inhibitor, single point] |
| Cc1cccc(N2CCN(C(=O)c3ccc4ccccc4c3)CC2C)c1 (stereo not given) | inconclusive: 5.01 µM [inhibitor, partial curve, poor fit] |

17 compounds already listed, arranged by SMILES length, ascending.

| Structure (SMILES) | Potency |
| --- | --- |
| COc1ccc(N=Cc2cccc(C)c2O)cc1Cl | inconclusive: 3.55 µM [activator, single point] |
| CCSc1nnc2c(n1)[nH]c1c(C)cccc12 | inactive |
| O=c1/c(=C/c2ccc(O)cc2)sc2n1CCCN=2 | inconclusive: 20 µM [activator, single point] |
| CCN(CC)CCCN=C(C)C1=C(O)c2ccccc2C1=O | inconclusive: 6.31 µM [activator, single point] |
| Cc1ccc(-c2cc(-c3ccc(F)cc3)nc(N)c2C#N)o1 | inconclusive: 22.4 µM [inhibitor, partial curve, poor fit] |
| Cc1cccc(N2CCN(C(=O)c3ccc4ccccc4c3)CC2C)c1 (stereo not given) | inconclusive: 5.01 µM [inhibitor, partial curve, poor fit] |
| CCOc1cc(-c2nccc3cc(OC)c(OC)cc23)cc(OCC)c1OCC | inconclusive: 11.2 µM [inhibitor, partial curve, poor fit] |
| O=C(Nc1ccccc1)c1cc([N+](=O)[O-])ccc1NC1CCCCC1 | inconclusive: 0.447 µM [inhibitor, full curve, poor fit] |
| Cc1ccc(S(=O)(=O)CCSc2nc(C)cc(C(F)(F)F)c2C#N)cc1 | inconclusive: 14.1 µM [inhibitor, single point] |
| O=C(COC(=O)Cc1ccc(F)cc1)Nc1ccc2[nH]c(=O)[nH]c2c1 | inactive |
| Cc1nnnn1/C(=C\c1ccccc1)C(=O)OCC(=O)Nc1ccc(Cl)cc1F | active: 20 µM |
| COc1ccc(-c2nc3scc(CCNS(=O)(=O)c4ccc(C)cc4)n3n2)cc1 | inactive |
| COC(=O)C1=CN(CC2CCCO2)C=C(C(=O)OC)C1c1cc(OC)c(OC)c(OC)c1 (stereo not given) | inconclusive: 9.2 µM [inhibitor, partial curve] |
| CCOC(=O)c1c(C)[nH]c(C(=O)COC(=O)[C@H](C)N2C(=O)C3CCCCC3C2=O)c1C (stereo not given in full) | inconclusive: 35.5 µM [inhibitor, single point] |
| O=C(c1ccc(S(=O)(=O)c2cccc(Cl)c2)c([N+](=O)[O-])c1)N1CCN(c2ccccn2)CC1 | inconclusive: 11.2 µM [inhibitor, single point] |
| COc1ccc(C(=O)/C=C/C(=O)N(Cc2ccccc2OC)C(C(=O)NC2CCCCC2)c2ccncc2)c(O)c1 (stereo not given) | inconclusive: 22.4 µM [inhibitor, single point] |
| CCOc1ccc(-c2cc3nc(C4CCN(C(=O)OC(C)(C)C)CC4)c(C(=O)Nc4c(C)cccc4C)cn3n2)cc1 | inactive |

Reprinted from the entries so far, two compounds:

| Structure (SMILES) | Potency |
| --- | --- |
| COc1ccc(N=Cc2cccc(C)c2O)cc1Cl | inconclusive: 3.55 µM [activator, single point] |
| COc1ccc(S(=O)(=O)N(CC(=O)Nc2ccccc2Br)Cc2ccccc2)cc1 | inconclusive: 35.5 µM [inhibitor, single point] |

(listing goes on)

| Structure (SMILES) | Potency |
| --- | --- |
| COc1ccccc1NC(=O)CN1CCN(C2c3ccccc3-c3ccccc32)CC1 | inconclusive: 35.5 µM [inhibitor, single point] |
| O=C(N[C@@H](Cc1ccccc1)C(=O)CCl)OCc1ccccc1 | active: 3.26 µM |
| CC(=O)Oc1ccc(C(=O)[C@H]2[C@H]3C(=O)N(c4ccc(C)cc4)C(=O)[C@H]3[C@@H]3C=CC=NN32)cc1 | inconclusive: 10 µM [activator, partial curve, poor fit] |
| O=C(NC1CCCc2c1cnn2-c1cc(F)cc(F)c1)c1ccccn1 (stereo not given) | inconclusive: 11.2 µM [inhibitor, single point] |
| CCCC(=O)NCC1(N(C)C)CCCCC1 | inconclusive: 1.26 µM [activator, full curve, poor fit] |
| CCOc1ccccc1C(=O)NCCNC(=O)c1ccccc1OCC | inconclusive: 0.251 µM [inhibitor, partial curve, poor fit] |
| CCCc1nc2ccc(Br)cc2c(=O)n1-c1ccc([N+](=O)[O-])c(C(F)(F)F)c1 | inconclusive: 25.1 µM [inhibitor, single point] |
| O=C(c1cccc(S(=O)(=O)N2CCc3ccccc32)c1)N1CCN(c2ccccc2)CC1 | active: 3.98 µM |
| Cc1ccc(C(=O)Nc2ccncc2)c(C)c1 | inactive |
| N#Cc1ccc(C(=O)Nc2cc3nn(-c4ccccc4)nc3cc2Cl)c(F)c1 | inactive |
| O=C(c1cc(-c2ccccc2)nn1-c1ccccc1)N1CCN(S(=O)(=O)c2c(F)cccc2F)CC1 | inconclusive: 0.112 µM [inhibitor, full curve, poor fit] |
| CC(NC(=O)CCl)c1ccc(Cl)c(Cl)c1 (stereo not given) | inconclusive: 17.8 µM [inhibitor, single point] |
| Cc1cc(Nc2ccccc2)nc(NCc2ccccc2)n1 | inconclusive: 35.5 µM [inhibitor, single point] |
| O=C(Cn1c(SCC(=O)Nc2ccc(F)cc2)nc2ccccc21)NCc1ccc(F)cc1 | inconclusive: 1.78 µM [inhibitor, partial curve, poor fit] |
| O=C(NOCc1ccccc1)c1ccc([N+](=O)[O-])cc1 | inconclusive: 35.5 µM [inhibitor, single point] |
| Cc1cc(=O)[nH]c(SCC(=O)Nc2ccc(S(=O)(=O)N3CCCCC3)cc2)n1 | inactive |
| c1ccc(-c2ccccc2OCCN2CCCCC2)cc1 | inconclusive: 7.94 µM [inhibitor, partial curve] |
| COc1ccc2nc(SCC(=O)NC3CCCC3)c(C)cc2c1 | inconclusive: 2.82 µM [inhibitor, full curve, poor fit] |
| COc1ccc(/C=N\NC(=O)c2ccc(-c3ccccc3)cc2)c(OC)c1OC | inconclusive: 7.08 µM [inhibitor, full curve, poor fit] |
| COc1cccc(Cn2cnc3c(NS(=O)(=O)c4cc(Cl)ccc4Cl)c(C)c(C)cc32)c1 | inconclusive: 29.1 µM [inhibitor, single point] |
| CCC1=Nc2cc(C(=O)NCCCOC)ccc2Sc2ccc(Br)cc21 | inconclusive: 3.98 µM [inhibitor, partial curve, poor fit] |
